From article PMC12618784
These are yes or no findings as the source states them, for the method shown. Binding seen in cells or lysates may run through a third protein. A yes stands for co-enrichment or nearness to the bait. Other partners may have been found.

By UniProt entry, the sequences of proteins in these tests, tags left out.
UniProt P22700: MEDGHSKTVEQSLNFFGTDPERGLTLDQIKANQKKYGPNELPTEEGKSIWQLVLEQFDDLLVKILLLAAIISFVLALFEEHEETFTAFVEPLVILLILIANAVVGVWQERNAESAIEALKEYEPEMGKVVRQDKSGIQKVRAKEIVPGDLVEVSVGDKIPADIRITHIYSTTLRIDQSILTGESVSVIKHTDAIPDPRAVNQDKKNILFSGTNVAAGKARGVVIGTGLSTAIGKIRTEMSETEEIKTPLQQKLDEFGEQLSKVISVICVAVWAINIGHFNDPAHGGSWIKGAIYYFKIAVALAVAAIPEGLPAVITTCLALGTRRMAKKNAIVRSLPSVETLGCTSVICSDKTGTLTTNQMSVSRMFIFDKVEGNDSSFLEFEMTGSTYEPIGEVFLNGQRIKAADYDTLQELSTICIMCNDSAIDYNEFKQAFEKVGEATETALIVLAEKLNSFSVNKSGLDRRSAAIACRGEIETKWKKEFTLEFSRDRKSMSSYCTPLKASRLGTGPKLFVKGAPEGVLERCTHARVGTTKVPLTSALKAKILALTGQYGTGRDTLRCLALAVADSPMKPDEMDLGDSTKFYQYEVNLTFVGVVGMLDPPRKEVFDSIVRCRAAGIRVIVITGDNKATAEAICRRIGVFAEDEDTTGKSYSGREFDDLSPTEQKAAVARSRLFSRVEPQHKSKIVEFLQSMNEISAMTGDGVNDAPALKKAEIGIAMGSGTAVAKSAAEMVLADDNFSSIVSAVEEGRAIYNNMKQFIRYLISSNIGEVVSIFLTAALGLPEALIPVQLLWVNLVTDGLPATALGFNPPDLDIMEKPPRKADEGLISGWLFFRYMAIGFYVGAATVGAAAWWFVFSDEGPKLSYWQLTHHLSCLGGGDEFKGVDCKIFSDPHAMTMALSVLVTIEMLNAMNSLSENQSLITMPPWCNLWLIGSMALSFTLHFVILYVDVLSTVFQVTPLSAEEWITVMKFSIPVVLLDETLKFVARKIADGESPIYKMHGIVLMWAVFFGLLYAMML

Target: T1, Dmel\Tmem43wt::TurboID (Drosophila) (UniProt Q9VSB9)
T1 sequence: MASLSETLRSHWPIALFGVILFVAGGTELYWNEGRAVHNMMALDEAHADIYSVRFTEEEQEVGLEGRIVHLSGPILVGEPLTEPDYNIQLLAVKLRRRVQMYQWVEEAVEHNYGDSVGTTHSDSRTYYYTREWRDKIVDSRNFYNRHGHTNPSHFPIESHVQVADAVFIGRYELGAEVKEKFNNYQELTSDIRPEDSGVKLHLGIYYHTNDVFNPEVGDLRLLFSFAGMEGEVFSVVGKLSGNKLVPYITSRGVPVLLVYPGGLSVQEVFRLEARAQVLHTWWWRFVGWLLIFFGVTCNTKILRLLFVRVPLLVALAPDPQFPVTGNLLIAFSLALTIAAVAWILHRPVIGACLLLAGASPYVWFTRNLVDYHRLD
Assay: proximity labelling; TurboID fusions expressed in muscle of third-instar larvae (mef2-Gal4); biotinylated proteins purified on streptavidin microbeads and identified by mass spectrometry

Substance: SERCA (from UniProt P22700 1-1020)
- binding: binds

Substance: HRP49
- binding: binds
